# The supplement of paper PMC3334620
# Whole data set: some 33,000 sequences, median “E-score (-0.5 to 0.5)” near -0.0034, cut for the highest 2% near 0.25. Some of the results follow.
# Target: T1, Yap3 (UniProt P38749)
# T1 sequence: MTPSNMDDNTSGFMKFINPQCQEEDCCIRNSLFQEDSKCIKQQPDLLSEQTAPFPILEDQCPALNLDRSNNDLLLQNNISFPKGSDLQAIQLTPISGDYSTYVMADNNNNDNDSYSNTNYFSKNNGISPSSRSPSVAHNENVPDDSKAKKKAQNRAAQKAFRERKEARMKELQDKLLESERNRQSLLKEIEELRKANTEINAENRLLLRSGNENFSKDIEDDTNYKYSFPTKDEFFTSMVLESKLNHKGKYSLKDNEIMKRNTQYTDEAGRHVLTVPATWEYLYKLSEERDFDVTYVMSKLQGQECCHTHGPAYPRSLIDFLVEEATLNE
# Assay: PBM E-score (8-mer binding enrichment) (E-score (-0.5 to 0.5)); higher = stronger / more preferred TF binding
# Conditions: protein concentration: 100 nM; construct: GST-full length
# In short: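 PURExpress in vitro transcription/translation supplied GST-tagged yeast transcription factors, either full-length or DNA-binding domain. Applied at about 100-200 nM to universal all-10-mer Agilent arrays double-stranded by primer extension, the bound protein was detected with fluorescent anti-GST. E-scores, modified Wilcoxon-Mann-Whitney statistics, were given by the Universal PBM Analysis Suite to ungapped eight-base words pooled with their reverse complements after masliner normalisation.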
row,Sequence,PBM E-score
1,ACATAATA,0.353
2,CCTCAATC,-0.0381
3,CCAAAAGG,-0.205
4,GTTGATCA,0.027
5,GAATAGAC,0.0977
6,ACAGTGTG,0.0708
7,AGCGTGTA,-0.0241
8,AATCTAGG,0.145
9,CTGCAAGC,-0.147
10,CCAGCAGA,-0.17
11,CATCGGAG,-0.206
12,CTGATCAA,-0.0934
13,CGACAAAC,-0.0438
14,AATTCAGA,0.172
15,AATTAAGT,0.221
16,CAGATCTG,-0.0442
17,GGCACGAA,0.0703
18,CGTCGTAC,0.0124
19,ACTGGAGC,-0.294
20,GGAATTCA,0.148
21,ACAAAACT,0.206
22,CAAAAGCG,0.0288

row,Sequence,PBM E-score
1,CTTGGCAA,-0.0653
2,GGAGTACA,-0.0901
3,CAATGCTG,-0.114
4,TGACCTCA,-0.128
5,CACGGGGG,-0.333
6,CGCAGCCG,-0.235
7,AAATAGGA,0.213
8,AACTGCTG,-0.108
9,AGAGGGTA,-0.137
10,CCGTTCTC,0.0108
11,CGCTCAAA,0.0898
12,GATAATTA,0.251
13,CACTGACG,-0.155
14,CAGAACTA,-0.0471
15,CCCAACCC,0.0611
16,ACGCCACT,-0.0148
17,CGTTAGCC,0.108
18,TAAGCGGA,9e-05
19,AGTGTACG,0.0517
20,AGCTACCG,-0.195
21,ATCCAATA,0.143
22,TATGTGCA,0.00178

row,Sequence,PBM E-score
1,CGCTGACG,-0.286
2,TATAAACA,0.177
3,GCATCAGA,0.136
4,AACGTCTT,0.0101
5,GTACCCTA,-0.0277
6,GTCTGCCA,-0.174
7,AATCTGCC,-0.0324
8,ACGAAACA,0.0846
9,GTCTCCGA,-0.103
10,ACTGGCCA,-0.0318
11,AAATTAAA,0.319
12,AATTCTCT,-0.0515
13,GTCACAAA,0.00773
14,CCCCGGAG,-0.132
15,CGCTGCAA,0.0789
16,AAGGCGCT,-0.0833
17,GCCGCTCC,-0.304
18,ACACCTGT,-0.0238
19,CAGTTTGA,0.013
20,CCCAACGG,-0.105
21,AGTTCGCA,0.0174
22,ATCGCGAC,0.209

row,Sequence,PBM E-score
1,AACCGCAT,0.135
2,GTGTCATA,0.113
3,CGAAGGCG,-0.0306
4,ATCTAACC,-0.00209
5,AGAGGACA,-0.133
6,CGAGCTAG,-0.0107
7,ATGACAAA,0.307
8,AATTGGCT,0.251
9,ACTAAACT,0.0886
10,CGTTTAAC,0.178
11,ACCCGTTC,0.0741
12,CCTGAGAG,-0.184
13,AAGCCACC,-0.235
14,ATAGTTAA,0.114
15,CCGAGCCC,-0.375
16,CGCCGGTC,-0.178
17,CGAAGCGC,-0.123
18,TACTCTCA,0.079
19,GATTGTGA,0.0832
20,GACAGCTC,-0.371

# Copied from the list:
# Value of TACTCTCA under PBM E-score: 0.079
# Value of CGAAGCGC under PBM E-score: -0.123
